The list shows a part of the results.
What was measured:
Test in all cases: log2 fold change, soluble protein after heating vs DMSO (PISA); higher = thermal stabilisation; K562 cells, 10 uM, 30 min; active = over 0.2 and 3.5 SD of the protein, either way, in both replicates (recomputed)
[1] = compound: CC1=C(C=C(C=C1)NC(=O)C2=CC(=CC=C2)C(C)(C)C#N)NC3=CC4=C(C=C3)N=CN(C4=O)C
Procedure, shortened: (§1)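 K562 cells at 2×10^6 cells/mL were given 10 μM compound for 30 min. Aliquots then went through 3 min of heating across 48°C-58°C, were pooled, and were extracted in PBS with 0.5% NP-40 at 4°C, and the supernatant after 21,000xg for 90 min was quantified by TMTpro 16plex LC-MS/MS with channel sums equalised. Thermal stability relative to control samples, from duplicates, is given as log2 fold change.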

Protein sequences, listed by entry. Tags and fused reporters are not part of them. Lines headed by an entry give the natural chain unless they say otherwise; changes in a name come on top.
UniProt Q6IBS0: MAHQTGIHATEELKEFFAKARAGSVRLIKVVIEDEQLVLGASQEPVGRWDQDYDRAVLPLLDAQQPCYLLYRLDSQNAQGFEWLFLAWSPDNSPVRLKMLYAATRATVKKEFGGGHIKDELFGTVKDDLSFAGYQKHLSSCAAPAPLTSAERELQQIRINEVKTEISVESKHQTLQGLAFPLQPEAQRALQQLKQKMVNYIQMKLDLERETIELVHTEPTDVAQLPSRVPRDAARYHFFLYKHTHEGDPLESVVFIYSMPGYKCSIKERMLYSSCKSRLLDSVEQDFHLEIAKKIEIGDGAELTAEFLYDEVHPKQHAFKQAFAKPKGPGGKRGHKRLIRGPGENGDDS
UniProt Q8NBM4: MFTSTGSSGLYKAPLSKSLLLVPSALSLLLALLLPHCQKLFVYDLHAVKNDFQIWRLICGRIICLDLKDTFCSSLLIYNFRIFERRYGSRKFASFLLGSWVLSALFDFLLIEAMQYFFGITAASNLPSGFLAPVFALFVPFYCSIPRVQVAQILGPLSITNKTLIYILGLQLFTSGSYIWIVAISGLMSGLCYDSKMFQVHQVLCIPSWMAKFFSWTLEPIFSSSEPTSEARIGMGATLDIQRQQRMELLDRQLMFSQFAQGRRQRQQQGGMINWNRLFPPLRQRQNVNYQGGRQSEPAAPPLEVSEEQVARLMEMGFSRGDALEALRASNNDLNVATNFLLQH
UniProt P63279, whole entry, looked up: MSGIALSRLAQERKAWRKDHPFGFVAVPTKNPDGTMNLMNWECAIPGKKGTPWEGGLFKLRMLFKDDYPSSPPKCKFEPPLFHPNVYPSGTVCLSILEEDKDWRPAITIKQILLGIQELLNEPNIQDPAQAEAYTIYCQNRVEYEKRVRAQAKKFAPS
UniProt Q9NPD8: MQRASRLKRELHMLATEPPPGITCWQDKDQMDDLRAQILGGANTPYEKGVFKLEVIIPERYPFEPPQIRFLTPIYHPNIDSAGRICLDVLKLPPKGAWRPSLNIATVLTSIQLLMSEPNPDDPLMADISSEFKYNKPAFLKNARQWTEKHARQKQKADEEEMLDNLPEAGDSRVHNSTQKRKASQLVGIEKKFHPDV
UniProt P40222: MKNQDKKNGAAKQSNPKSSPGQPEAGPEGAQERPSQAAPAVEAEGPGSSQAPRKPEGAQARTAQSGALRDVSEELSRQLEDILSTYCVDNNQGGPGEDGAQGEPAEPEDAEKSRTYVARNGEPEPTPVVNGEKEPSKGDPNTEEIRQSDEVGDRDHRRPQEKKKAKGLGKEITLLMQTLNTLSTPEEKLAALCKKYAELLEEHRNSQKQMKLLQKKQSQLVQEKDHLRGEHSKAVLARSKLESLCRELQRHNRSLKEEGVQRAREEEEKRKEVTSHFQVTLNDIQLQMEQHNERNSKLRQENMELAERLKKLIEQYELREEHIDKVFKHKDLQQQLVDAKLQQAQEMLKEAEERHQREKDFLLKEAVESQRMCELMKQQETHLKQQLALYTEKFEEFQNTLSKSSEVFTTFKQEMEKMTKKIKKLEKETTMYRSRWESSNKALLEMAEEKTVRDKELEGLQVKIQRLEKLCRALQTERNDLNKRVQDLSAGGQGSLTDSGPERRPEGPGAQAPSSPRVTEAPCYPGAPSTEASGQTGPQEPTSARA
UniProt P30536, whole entry, looked up: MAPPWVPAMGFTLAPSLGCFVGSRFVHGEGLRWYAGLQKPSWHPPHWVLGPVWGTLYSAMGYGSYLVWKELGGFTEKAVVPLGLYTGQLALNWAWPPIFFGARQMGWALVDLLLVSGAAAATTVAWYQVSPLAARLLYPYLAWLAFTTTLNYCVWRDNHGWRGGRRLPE
UniProt O15042: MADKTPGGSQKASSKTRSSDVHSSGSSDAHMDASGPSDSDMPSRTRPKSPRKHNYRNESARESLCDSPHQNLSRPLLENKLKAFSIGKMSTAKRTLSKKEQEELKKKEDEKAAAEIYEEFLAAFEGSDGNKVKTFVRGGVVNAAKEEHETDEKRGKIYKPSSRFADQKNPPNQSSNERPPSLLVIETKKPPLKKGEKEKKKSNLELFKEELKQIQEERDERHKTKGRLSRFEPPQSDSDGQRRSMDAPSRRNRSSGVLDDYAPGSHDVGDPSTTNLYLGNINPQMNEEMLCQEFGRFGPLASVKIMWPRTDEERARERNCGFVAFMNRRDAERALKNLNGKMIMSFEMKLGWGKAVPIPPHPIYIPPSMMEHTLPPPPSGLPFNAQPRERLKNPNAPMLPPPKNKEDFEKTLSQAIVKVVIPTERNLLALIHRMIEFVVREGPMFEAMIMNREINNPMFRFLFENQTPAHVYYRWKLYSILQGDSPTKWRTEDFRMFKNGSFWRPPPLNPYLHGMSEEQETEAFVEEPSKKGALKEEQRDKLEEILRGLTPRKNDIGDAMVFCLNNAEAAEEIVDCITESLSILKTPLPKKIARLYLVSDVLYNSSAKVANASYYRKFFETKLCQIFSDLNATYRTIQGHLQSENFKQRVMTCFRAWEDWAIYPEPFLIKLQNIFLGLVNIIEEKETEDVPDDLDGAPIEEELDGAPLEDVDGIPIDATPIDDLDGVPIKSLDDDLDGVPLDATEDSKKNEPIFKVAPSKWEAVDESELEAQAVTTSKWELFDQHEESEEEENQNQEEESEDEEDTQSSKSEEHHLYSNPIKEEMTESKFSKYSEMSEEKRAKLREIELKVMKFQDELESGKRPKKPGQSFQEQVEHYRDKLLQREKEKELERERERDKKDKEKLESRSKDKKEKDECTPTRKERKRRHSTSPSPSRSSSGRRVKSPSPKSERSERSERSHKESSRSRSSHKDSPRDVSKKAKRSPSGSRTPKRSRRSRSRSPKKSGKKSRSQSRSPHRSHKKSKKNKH
UniProt Q9Y5U2: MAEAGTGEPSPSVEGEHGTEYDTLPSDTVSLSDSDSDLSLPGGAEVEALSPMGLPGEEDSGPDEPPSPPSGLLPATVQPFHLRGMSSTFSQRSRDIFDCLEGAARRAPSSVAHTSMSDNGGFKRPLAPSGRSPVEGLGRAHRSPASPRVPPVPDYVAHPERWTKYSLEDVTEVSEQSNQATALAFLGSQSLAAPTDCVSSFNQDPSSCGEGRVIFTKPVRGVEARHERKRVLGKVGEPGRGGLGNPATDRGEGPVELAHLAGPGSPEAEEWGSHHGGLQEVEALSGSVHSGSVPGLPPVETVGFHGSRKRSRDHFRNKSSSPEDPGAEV
UniProt Q9GZZ9, whole entry, looked up: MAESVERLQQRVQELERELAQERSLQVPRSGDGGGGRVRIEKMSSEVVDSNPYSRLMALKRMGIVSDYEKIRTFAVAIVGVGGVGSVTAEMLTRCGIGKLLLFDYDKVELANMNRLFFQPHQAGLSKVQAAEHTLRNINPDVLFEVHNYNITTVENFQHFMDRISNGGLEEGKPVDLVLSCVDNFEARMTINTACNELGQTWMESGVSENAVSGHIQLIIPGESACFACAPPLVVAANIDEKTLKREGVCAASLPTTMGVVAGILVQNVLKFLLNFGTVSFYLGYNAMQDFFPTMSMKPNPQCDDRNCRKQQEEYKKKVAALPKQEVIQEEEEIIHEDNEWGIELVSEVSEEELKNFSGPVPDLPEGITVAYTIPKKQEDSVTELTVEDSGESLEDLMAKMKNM
UniProt Q3KQV9: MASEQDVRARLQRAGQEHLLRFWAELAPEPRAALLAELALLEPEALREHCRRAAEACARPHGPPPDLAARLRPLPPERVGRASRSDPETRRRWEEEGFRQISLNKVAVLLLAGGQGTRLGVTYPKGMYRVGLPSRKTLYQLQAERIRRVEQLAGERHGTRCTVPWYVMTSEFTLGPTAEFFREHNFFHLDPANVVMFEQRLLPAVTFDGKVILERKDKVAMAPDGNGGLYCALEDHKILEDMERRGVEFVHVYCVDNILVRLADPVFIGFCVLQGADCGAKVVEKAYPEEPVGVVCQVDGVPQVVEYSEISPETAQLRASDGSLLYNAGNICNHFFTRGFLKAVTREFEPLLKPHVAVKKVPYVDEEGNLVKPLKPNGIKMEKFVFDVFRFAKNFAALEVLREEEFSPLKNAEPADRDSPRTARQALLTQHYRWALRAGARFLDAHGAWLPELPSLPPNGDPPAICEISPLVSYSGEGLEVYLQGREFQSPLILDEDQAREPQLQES
UniProt Q6DKK2: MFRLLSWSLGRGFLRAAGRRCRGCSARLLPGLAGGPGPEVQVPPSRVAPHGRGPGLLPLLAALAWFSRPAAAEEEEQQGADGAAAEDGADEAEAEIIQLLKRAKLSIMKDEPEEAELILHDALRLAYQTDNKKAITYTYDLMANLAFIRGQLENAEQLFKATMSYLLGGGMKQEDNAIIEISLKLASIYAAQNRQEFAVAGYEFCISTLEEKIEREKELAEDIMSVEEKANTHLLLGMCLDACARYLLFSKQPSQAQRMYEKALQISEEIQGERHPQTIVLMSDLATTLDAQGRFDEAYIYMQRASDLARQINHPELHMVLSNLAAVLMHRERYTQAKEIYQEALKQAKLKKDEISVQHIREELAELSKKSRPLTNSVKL
UniProt Q8TBC4: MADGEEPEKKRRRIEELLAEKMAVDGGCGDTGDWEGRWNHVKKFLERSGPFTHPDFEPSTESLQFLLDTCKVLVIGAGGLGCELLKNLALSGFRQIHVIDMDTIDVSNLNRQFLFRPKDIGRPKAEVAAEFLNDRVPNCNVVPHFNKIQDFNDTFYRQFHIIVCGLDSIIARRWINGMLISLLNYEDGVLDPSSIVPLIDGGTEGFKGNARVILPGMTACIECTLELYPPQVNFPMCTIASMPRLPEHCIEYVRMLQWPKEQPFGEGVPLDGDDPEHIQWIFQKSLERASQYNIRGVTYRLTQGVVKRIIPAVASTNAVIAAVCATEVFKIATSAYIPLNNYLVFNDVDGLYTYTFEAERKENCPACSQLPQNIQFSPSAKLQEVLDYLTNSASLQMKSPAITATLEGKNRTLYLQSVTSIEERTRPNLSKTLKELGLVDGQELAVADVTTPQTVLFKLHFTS
UniProt P63146, whole entry, looked up: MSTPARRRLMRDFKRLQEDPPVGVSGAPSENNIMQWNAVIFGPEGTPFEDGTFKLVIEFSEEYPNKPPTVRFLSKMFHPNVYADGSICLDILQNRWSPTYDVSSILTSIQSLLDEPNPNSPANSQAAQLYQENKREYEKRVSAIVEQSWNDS
UniProt P61086: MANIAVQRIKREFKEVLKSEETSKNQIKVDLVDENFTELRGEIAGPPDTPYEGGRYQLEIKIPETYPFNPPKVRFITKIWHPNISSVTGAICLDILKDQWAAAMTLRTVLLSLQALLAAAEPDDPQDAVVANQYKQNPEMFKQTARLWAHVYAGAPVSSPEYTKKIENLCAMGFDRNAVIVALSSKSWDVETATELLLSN
UniProt Q15819: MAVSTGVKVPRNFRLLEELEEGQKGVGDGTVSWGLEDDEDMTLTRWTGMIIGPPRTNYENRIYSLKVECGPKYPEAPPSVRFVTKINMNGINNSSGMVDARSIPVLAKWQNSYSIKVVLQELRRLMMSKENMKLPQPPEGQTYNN

[2] = compound: CC1=C(C=C(C=C1)NC(=O)C2=CC(=CC=C2)N(C)C)NC(=O)C3=CC=C(C=C3)O
Procedure, shortened: as §1

[3] = compound: CC1=CC=C(C=C1)SC2=C3C=C(SC3=CN=C2)C(=O)N
Procedure, shortened: as §1

[4] = compound: CC1=NC(=CC=C1)C2=C(N=C(N2)C(C)(C)C)C3=CC4=NC=CN=C4C=C3
Procedure, shortened: as §1

Nexturastat A = compound: CCCCN(Cc1ccc(C(=O)NO)cc1)C(=O)Nc1ccccc1 [Nexturastat A]
Procedure, shortened: as §1

vemurafenib = compound: CCCS(=O)(=O)Nc1ccc(F)c(C(=O)c2c[nH]c3ncc(-c4ccc(Cl)cc4)cc23)c1F [vemurafenib]
Procedure, shortened: as §1

[5] = compound: CCCS(=O)(=O)Nc1ccc(F)c(C(=O)c2c[nH]c3ncc(Cl)cc23)c1F
Procedure, shortened: as §1

[6] = compound: CCCc1cc(C)[nH]c(=O)c1CNC(=O)c1cc(-c2ccnc(N3CCN(C)CC3)c2)cc2c1cnn2C(C)C
Procedure, shortened: as §1

givinostat = compound: CCN(CC)Cc1ccc2cc(COC(=O)Nc3ccc(C(=O)NO)cc3)ccc2c1 [givinostat]
Procedure, shortened: as §1

barasertib = compound: CCN(CCCOc1ccc2c(Nc3cc(CC(=O)Nc4cccc(F)c4)[nH]n3)ncnc2c1)CCOP(=O)(O)O [barasertib]
Procedure, shortened: as §1

[7] = compound: CC[C@@H]1C(=O)N(C)c2cnc(Nc3ccc(C(=O)NC4CCN(C)CC4)cc3OC)nc2N1C1CCCC1
Procedure, shortened: as §1

volasertib = compound: CC[C@@H]1C(=O)N(C)c2cnc(Nc3ccc(C(=O)N[C@H]4CC[C@H](N5CCN(CC6CC6)CC5)CC4)cc3OC)nc2N1C(C)C [volasertib]
Procedure, shortened: as §1

[8] = compound: CC[C@H](C)N1C=C(C2=C(C=C(C=C21)C3=CN=C(C=C3)N4CCNCC4)C(=O)NCC5=C(C=C(NC5=O)C)C)C
Procedure, shortened: as §1

epoxomicin = compound: CC[C@H](C)[C@@H](C(=O)N[C@@H]([C@@H](C)O)C(=O)N[C@@H](CC(C)C)C(=O)[C@]1(CO1)C)NC(=O)[C@H]([C@@H](C)CC)N(C)C(=O)C [epoxomicin]
Procedure, shortened: as §1

[9] = compound: CCn1c(C(=O)N(C2CC2)C2CC2)cc2c3c(ncn3C)c(Nc3cc(C)n(C)n3)nc21
Procedure, shortened: as §1

[10] = compound: CCn1cc(-c2ccnc3[nH]c(-c4cccc(CN(C)C)c4)cc23)c(-c2ccc(NC(=O)N(C)C)cc2)n1
Procedure, shortened: as §1

[11] = compound: CN(C)CC(=O)Nc1ccc2[nH]c(=O)c3ccccc3c2c1
Procedure, shortened: as §1

rosiglitazone = compound: CN(CCOC1=CC=C(C=C1)C[C@H]2C(=O)NC(=O)S2)C3=CC=CC=N3 (racemic) [rosiglitazone]
Procedure, shortened: as §1

[12] = compound: CN1C2=C(C3=C1C(=O)N(N=C3)CC4=CC(=CC=C4)N)SC(=C2)S(=O)C
Procedure, shortened: as §1

[13] = compound: CN1CCC(CNc2ccc3ncc(-c4cccc(OC(F)(F)F)c4)n3n2)CC1
Procedure, shortened: as §1

Measured: log2 fold change

TWF2 (UniProt Q6IBS0)
inactive: [1] 0.093 | [2] -0.036 | [3] 0.015 | [4] 0.032 | Nexturastat A -0.033 | vemurafenib 0.011 | [5] 0.019 | [6] -0.043 | givinostat 0.032 | barasertib 0.029 | [7] 0.045 | volasertib 0.052 | [8] 0.001 | epoxomicin 0.065 | [9] -0.024 | [10] -0.041 | [11] -0.023 | rosiglitazone 0.01 | [12] -0.036 | [13] 0.037

UBAC2 (UniProt Q8NBM4)
inactive: [1] 0.08 | [2] -0.072 | [3] 0.013 | [4] 0.056 | Nexturastat A -0.013 | vemurafenib 0.023 | [5] 0.107 | [6] -0.124 | givinostat 0.075 | barasertib 0.033 | [7] -0.019 | volasertib -0.129 | [8] -0.025 | epoxomicin -0.016 | [9] 0.014 | [10] -0.02 | [11] 0.664 | rosiglitazone -0.006 | [12] 0.102 | [13] -0.06

UBE2I (UniProt P63279)
inactive: [1] -0.014 | [2] -0.007 | [3] -0.004 | [4] 0.018 | Nexturastat A 0.011 | vemurafenib 0.044 | [5] -0.066 | [6] -0.027 | givinostat 0.006 | barasertib 0.022 | [7] -0.083 | volasertib -0.01 | [8] 0.053 | epoxomicin 0.04 | [9] 0.028 | [10] -0.026 | [11] -0.008 | rosiglitazone 0.022 | [12] -0.047 | [13] -0.07

UBE2T (UniProt Q9NPD8)
inactive: [1] -0.015 | [2] -0.064 | [3] 0.075 | [4] 0 | Nexturastat A 0 | vemurafenib -0.016 | [5] 0.022 | [6] 0.032 | givinostat 0.089 | barasertib 0.068 | [7] 0.002 | volasertib -0.098 | [8] 0.057 | epoxomicin 0 | [9] -0.06 | [10] -0.043 | [11] 0.016 | rosiglitazone 0.062 | [12] -0.042 | [13] -0.033

TXLNA (UniProt P40222)
inactive: [1] 0.008 | [2] 0.004 | [3] -0.024 | [4] 0.03 | Nexturastat A -0.046 | vemurafenib 0.022 | [5] -0.001 | [6] -0.032 | givinostat -0.013 | barasertib 0.006 | [7] -0.011 | volasertib 0.023 | [8] 0.034 | epoxomicin 0.069 | [9] -0.002 | [10] 0 | [11] -0.005 | rosiglitazone 0.024 | [12] -0.06 | [13] 0.038

TSPO (UniProt P30536)
inactive: [1] -0.008 | [2] 0 | [3] -0.052 | [4] -0.023 | Nexturastat A -0.078 | vemurafenib -0.069 | [5] 0.015 | [6] -0.23 | givinostat -0.027 | barasertib -0.022 | [7] 0.095 | volasertib 0.124 | [8] -0.067 | epoxomicin -0.037 | [9] 0.001 | [10] 0.023 | [11] 0.068 | rosiglitazone 0.006 | [12] -0.026 | [13] 0.048

TTN isoform 12 (UniProt Q8WZ42)
inactive: [1] -0.256 | [2] -0.011 | [3] -0.187 | [4] -0.174 | Nexturastat A 0.153 | vemurafenib -0.171 | [5] -0.271 | [6] 0.088 | givinostat 0.094 | barasertib 0.08 | [7] 0.056 | volasertib 0.055 | [8] -0.114 | epoxomicin 0.016 | [9] -0.038 | [10] 0.01 | [11] -0.084 | rosiglitazone -0.011 | [12] 0.088 | [13] -0.244

U2SURP (UniProt O15042)
inactive: [1] 0.046 | [2] -0.127 | [3] -0.015 | [4] 0.009 | Nexturastat A 0.157 | vemurafenib 0.112 | [5] 0.078 | [6] 0.079 | givinostat 0.166 | barasertib 0.013 | [7] -0.114 | volasertib -0.356 | [8] 0.133 | epoxomicin 0.019 | [9] -0.092 | [10] 0.061 | [11] 0.076 | rosiglitazone -0.015 | [12] 0.09 | [13] -0.073

TSSC4 (UniProt Q9Y5U2)
inactive: [1] -0.059 | [2] 0.075 | [3] -0.028 | [4] -0.019 | Nexturastat A 0.069 | vemurafenib -0.142 | [5] -0.082 | [6] -0.08 | givinostat -0.03 | barasertib -0.036 | [7] 0.135 | volasertib 0.273 | [8] -0.048 | epoxomicin -0.137 | [9] 0.087 | [10] 0.088 | [11] -0.001 | rosiglitazone -0.039 | [12] 0.025 | [13] -0.085

UBA5 (UniProt Q9GZZ9)
inactive: [1] -0.003 | [2] -0.009 | [3] 0.052 | [4] 0.097 | Nexturastat A -0.055 | vemurafenib -0.008 | [5] 0.078 | [6] 0.007 | givinostat -0.033 | barasertib -0.004 | [7] -0.015 | volasertib 0.032 | [8] 0.024 | epoxomicin 0.041 | [9] 0.009 | [10] -0.066 | [11] -0.021 | rosiglitazone 0.021 | [12] -0.052 | [13] -0.033

UAP1L1 (UniProt Q3KQV9)
inactive: [1] -0.028 | [2] 0 | [3] -0.008 | [4] 0.041 | Nexturastat A -0.025 | vemurafenib 0.02 | [5] -0.027 | [6] -0.001 | givinostat -0.016 | barasertib 0.006 | [7] -0.044 | volasertib 0.025 | [8] 0.029 | epoxomicin 0.019 | [9] -0.018 | [10] 0.062 | [11] -0.037 | rosiglitazone 0.039 | [12] -0.06 | [13] -0.034

3 neighbouring entries from above, quoted:
TTN isoform 12 (UniProt Q8WZ42)
inactive: [1] -0.256 | [2] -0.011 | [3] -0.187 | [4] -0.174 | Nexturastat A 0.153 | vemurafenib -0.171 | [5] -0.271 | [6] 0.088 | givinostat 0.094 | barasertib 0.08 | [7] 0.056 | volasertib 0.055 | [8] -0.114 | epoxomicin 0.016 | [9] -0.038 | [10] 0.01 | [11] -0.084 | rosiglitazone -0.011 | [12] 0.088 | [13] -0.244

U2SURP (UniProt O15042)
inactive: [1] 0.046 | [2] -0.127 | [3] -0.015 | [4] 0.009 | Nexturastat A 0.157 | vemurafenib 0.112 | [5] 0.078 | [6] 0.079 | givinostat 0.166 | barasertib 0.013 | [7] -0.114 | volasertib -0.356 | [8] 0.133 | epoxomicin 0.019 | [9] -0.092 | [10] 0.061 | [11] 0.076 | rosiglitazone -0.015 | [12] 0.09 | [13] -0.073

TSSC4 (UniProt Q9Y5U2)
inactive: [1] -0.059 | [2] 0.075 | [3] -0.028 | [4] -0.019 | Nexturastat A 0.069 | vemurafenib -0.142 | [5] -0.082 | [6] -0.08 | givinostat -0.03 | barasertib -0.036 | [7] 0.135 | volasertib 0.273 | [8] -0.048 | epoxomicin -0.137 | [9] 0.087 | [10] 0.088 | [11] -0.001 | rosiglitazone -0.039 | [12] 0.025 | [13] -0.085

The listing continues.

TTC19 (UniProt Q6DKK2)
inactive: [1] 0.002 | [2] -0.005 | [3] 0.053 | [4] 0.028 | Nexturastat A -0.05 | vemurafenib 0.022 | [5] 0.075 | [6] -0.045 | givinostat 0.028 | barasertib -0.001 | [7] -0.035 | volasertib -0.136 | [8] -0.059 | epoxomicin 0.009 | [9] -0.006 | [10] -0.014 | [11] 0.026 | rosiglitazone 0.028 | [12] -0.001 | [13] -0.053

UBA3 (UniProt Q8TBC4)
inactive: [1] 0.04 | [2] -0.001 | [3] 0.009 | [4] 0.014 | Nexturastat A -0.092 | vemurafenib 0.043 | [5] 0.019 | [6] -0.016 | givinostat -0.038 | barasertib 0.012 | [7] -0.064 | volasertib -0.031 | [8] 0.083 | epoxomicin 0.08 | [9] -0.073 | [10] -0.106 | [11] 0.046 | rosiglitazone 0.083 | [12] -0.094 | [13] -0.193

UBE2B (UniProt P63146)
inactive: [1] 0.07 | [2] -0.076 | [3] 0.053 | [4] 0.04 | Nexturastat A -0.022 | vemurafenib -0.04 | [5] 0.066 | [6] -0.038 | givinostat -0.115 | barasertib 0.039 | [7] -0.057 | volasertib -0.143 | [8] 0.024 | epoxomicin 0.021 | [9] 0.082 | [10] 0.034 | [11] 0.051 | rosiglitazone 0.074 | [12] 0.094 | [13] 0.092

UBE2K (UniProt P61086)
inactive: [1] 0.017 | [2] -0.02 | [3] 0.063 | [4] 0.16 | Nexturastat A -0.032 | vemurafenib -0.02 | [5] 0.09 | [6] 0.014 | givinostat -0.021 | barasertib -0.005 | [7] -0.033 | volasertib -0.026 | [8] 0.018 | epoxomicin 0.069 | [9] -0.003 | [10] -0.011 | [11] -0.034 | rosiglitazone -0.027 | [12] -0.075 | [13] -0.081

UBE2V2 (UniProt Q15819)
inactive: [1] 0 | [2] 0.007 | [3] 0.007 | [4] 0.028 | Nexturastat A -0.056 | vemurafenib 0.033 | [5] 0.011 | [6] -0.022 | givinostat 0.011 | barasertib -0.006 | [7] -0.026 | volasertib 0.026 | [8] -0.003 | epoxomicin 0.015 | [9] 0 | [10] -0.032 | [11] -0.016 | rosiglitazone 0.028 | [12] -0.049 | [13] -0.058

— the supplement of paper PMC10849652
